B1: P05546 (protein, UniProt P05546 1-499, looked up)
chain: MKHSLNALLIFLIITSAWGGSKGPLDQLEKGGETAQSADPQWEQLNNKNLSMPLLPADFHKENTVTNDWIPEGEEDDDYLDLEKIFSEDDDYIDIVDSLSVSPTDSDVSAGNILQLFHGKSRIQRLNILNAKFAFNLYRVLKDQVNTFDNIFIAPVGISTAMGMISLGLKGETHEQVHSILHFKDFVNASSKYEITTIHNLFRKLTHRLFRRNFGYTLRSVNDLYIQKQFPILLDFKTKVREYYFAEAQIADFSDPAFISKTNNHIMKLTKGLIKDALENIDPATQMMILNCIYFKGSWVNKFPVEMTHNHNFRLNEREVVKVSMMQTKGNFLAANDQELDCDILQLEYVGGISMLIVVPHKMSGMKTLEAQLTPRVVERWQKSMTNRTREVLLPKFKLEKNYNLVESLKLMGIRMLFDKNGNMAGISDQRIAIDLFKHQGTITVNEEGTQATTVTTVGFMPLSTQVRFTVDRPFLFLIYEHRTSCLLFMGRVANPSRS
modifications: full-length
B2: O76003 (protein, UniProt O76003 1-335, looked up)
chain: MAAGAAEAAVAAVEEVGSAGQFEELLRLKAKSLLVVHFWAPWAPQCAQMNEVMAELAKELPQVSFVKLEAEGVPEVSEKYEISSVPTFLFFKNSQKIDRLDGAHAPELTKKVQRHASSGSFLPSANEHLKEDLNLRLKKLTHAAPCMLFMKGTPQEPRCGFSKQMVEILHKHNIQFSSFDIFSDEEVRQGLKAYSSWPTYPQLYVSGELIGGLDIIKELEASEELDTICPKAPKLEERLKVLTNKASVMLFMKGNKQEAKCGFSKQILEILNSTGVEYETFDILEDEEVRQGLKAYSNWPTYPQLYVKGELVGGLDIVKELKENGELLPILRGEN
modifications: full-length
B3: Q9Y2T3 (protein, UniProt Q9Y2T3 1-454, looked up)
chain: MCAAQMPPLAHIFRGTFVHSTWTCPMEVLRDHLLGVSDSGKIVFLEEASQQEKLAKEWCFKPCEIRELSHHEFFMPGLVDTHIHASQYSFAGSSIDLPLLEWLTKYTFPAEHRFQNIDFAEEVYTRVVRRTLKNGTTTACYFATIHTDSSLLLADITDKFGQRAFVGKVCMDLNDTFPEYKETTEESIKETERFVSEMLQKNYSRVKPIVTPRFSLSCSETLMGELGNIAKTRDLHIQSHISENRDEVEAVKNLYPSYKNYTSVYDKNNLLTNKTVMAHGCYLSAEELNVFHERGASIAHCPNSNLSLSSGFLNVLEVLKHEVKIGLGTDVAGGYSYSMLDAIRRAVMVSNILLINKVNEKSLTLKEVFRLATLGGSQALGLDGEIGNFEVGKEFDAILINPKASDSPIDLFYGDFFGDISEAVIQKFLYLGDDRNIEEVYVGGKQVVPFSSSV
modifications: full-length
B4: P42261 (protein, UniProt P42261 1-906, looked up)
chain: MQHIFAFFCTGFLGAVVGANFPNNIQIGGLFPNQQSQEHAAFRFALSQLTEPPKLLPQIDIVNISDSFEMTYRFCSQFSKGVYAIFGFYERRTVNMLTSFCGALHVCFITPSFPVDTSNQFVLQLRPELQDALISIIDHYKWQKFVYIYDADRGLSVLQKVLDTAAEKNWQVTAVNILTTTEEGYRMLFQDLEKKKERLVVVDCESERLNAILGQIIKLEKNGIGYHYILANLGFMDIDLNKFKESGANVTGFQLVNYTDTIPAKIMQQWKNSDARDHTRVDWKRPKYTSALTYDGVKVMAEAFQSLRRQRIDISRRGNAGDCLANPAVPWGQGIDIQRALQQVRFEGLTGNVQFNEKGRRTNYTLHVIEMKHDGIRKIGYWNEDDKFVPAATDAQAGGDNSSVQNRTYIVTTILEDPYVMLKKNANQFEGNDRYEGYCVELAAEIAKHVGYSYRLEIVSDGKYGARDPDTKAWNGMVGELVYGRADVAVAPLTITLVREEVIDFSKPFMSLGISIMIKKPQKSKPGVFSFLDPLAYEIWMCIVFAYIGVSVVLFLVSRFSPYEWHSEEFEEGRDQTTSDQSNEFGIFNSLWFSLGAFMQQGCDISPRSLSGRIVGGVWWFFTLIIISSYTANLAAFLTVERMVSPIESAEDLAKQTEIAYGTLEAGSTKEFFRRSKIAVFEKMWTYMKSAEPSVFVRTTEEGMIRVRKSKGKYAYLLESTMNEYIEQRKPCDTMKVGGNLDSKGYGIATPKGSALRNPVNLAVLKLNEQGLLDKLKNKWWYDKGECGSGGGDSKDKTSALSLSNVAGVFYILIGGLGLAMLVALIEFCYKSRSESKRMKGFCLIPQQSINEAIRTSTLPRNSGAGASSGGSGENGRVVSHDFPKSMQSIPCMSHSSGMPLGATGL
modifications: full-length
B5: Q8IZP7 (protein, UniProt Q8IZP7 1-471, looked up)
chain: MDERFNKWLLTPVLTLLFVVIMYQYVSPSCTSSCTNFGEQPRAGEAGPPAVPGPARRAQAPPEEWERRPQLPPPPRGPPEGPRGAAAPEEEDEEPGDPREGEEEEEEDEPDPEAPENGSLPRFVPRFNFSLKDLTRFVDFNIKGRDVIVFLHIQKTGGTTFGRHLVKNIRLEQPCSCKAGQKKCTCHRPGKKETWLFSRFSTGWSCGLHADWTELTNCVPAIMEKKDCPRNHSHTRNFYYITMLRDPVSRYLSEWKHVQRGATWKTSLHMCDGRSPTPDELPTCYPGDDWSGVSLREFMDCTYNLANNRQVRMLADLSLVGCYNLTFMNESERNTILLQSAKNNLKNMAFFGLTEFQRKTQFLFERTFNLKFISPFTQFNITRASNVEINEGARQRIEDLNFLDMQLYEYAKDLFQQRYHHTKQLEHQRDRQKRREERRLQREHRDHQWPKEDGAAEGTVTEDYNSQVVRW
modifications: full-length
B6: Q8IZP0 (protein, UniProt Q8IZP0 1-508, looked up)
chain: MAELQMLLEEEIPSGKRALIESYQNLTRVADYCENNYIQATDKRKALEETKAYTTQSLASVAYQINALANNVLQLLDIQASQLRRMESSINHISQTVDIHKEKVARREIGILTTNKNTSRTHKIIAPANMERPVRYIRKPIDYTVLDDVGHGVKWLKAKHGNNQPARTGTLSRTNPPTQKPPSPPMSGRGTLGRNTPYKTLEPVKPPTVPNDYMTSPARLGSQHSPGRTASLNQRPRTHSGSSGGSGSRENSGSSSIGIPIAVPTPSPPTIGPENISVPPPSGAPPAPPLAPLLPVSTVIAAPGSAPGSQYGTMTRQISRHNSTTSSTSSGGYRRTPSVTAQFSAQPHVNGGPLYSQNSISIAPPPPPMPQLTPQIPLTGFVARVQENIADSPTPPPPPPPDDIPMFDDSPPPPPPPPVDYEDEEAAVVQYNDPYADGDPAWAPKNYIEKVVAIYDYTKDKDDELSFMEGAIIYVIKKNDDGWYEGVCNRVTGLFPGNYVESIMHYTD
modifications: full-length
B7: P00739 (protein, UniProt P00739 1-348, looked up)
chain: MSDLGAVISLLLWGRQLFALYSGNDVTDISDDRFPKPPEIANGYVEHLFRYQCKNYYRLRTEGDGVYTLNDKKQWINKAVGDKLPECEAVCGKPKNPANPVQRILGGHLDAKGSFPWQAKMVSHHNLTTGATLINEQWLLTTAKNLFLNHSENATAKDIAPTLTLYVGKKQLVEIEKVVLHPNYHQVDIGLIKLKQKVLVNERVMPICLPSKNYAEVGRVGYVSGWGQSDNFKLTDHLKYVMLPVADQYDCITHYEGSTCPKWKAPKSPVGVQPILNEHTFCVGMSKYQEDTCYGDAGSAFAVHDLEEDTWYAAGILSFDKSCAVAEYGVYVKVTSIQHWVQKTIAEN
modifications: full-length
B8: P78417 (protein, UniProt P78417 1-241, looked up)
chain: MSGESARSLGKGSAPPGPVPEGSIRIYSMRFCPFAERTRLVLKAKGIRHEVININLKNKPEWFFKKNPFGLVPVLENSQGQLIYESAITCEYLDEAYPGKKLLPDDPYEKACQKMILELFSKVPSLVGSFIRSQNKEDYAGLKEEFRKEFTKLEEVLTNKKTTFFGGNSISMIDYLIWPWFERLEAMKLNECVDHTPKLKLWMAAMKEDPTVSALLTSEKDWQGFLELYLQNSPEACDYGL
modifications: full-length
B9: Q13151 (protein, UniProt Q13151 1-305, looked up)
chain: MENSQLCKLFIGGLNVQTSESGLRGHFEAFGTLTDCVVVVNPQTKRSRCFGFVTYSNVEEADAAMAASPHAVDGNTVELKRAVSREDSARPGAHAKVKKLFVGGLKGDVAEGDLIEHFSQFGTVEKAEIIADKQSGKKRGFGFVYFQNHDAADKAAVVKFHPIQGHRVEVKKAVPKEDIYSGGGGGGSRSSRGGRGGRGRGGGRDQNGLSKGGGGGYNSYGGYGGGGGGGYNAYGGGGGGSSYGGSDYGNGFGGFGSYSQHQSSYGPMKSGGGGGGGGSSWGGRSNSGPYRGGYGGGGGYGGSSF
modifications: full-length
B10: Q8TDQ7 (protein, UniProt Q8TDQ7 1-276, looked up)
chain: MRLVILDNYDLASEWAAKYICNRIIQFKPGQDRYFTLGLPTGSTPLGCYKKLIEYHKNGHLSFKYVKTFNMDEYVGLPRNHPESYHSYMWNNFFKHIDIDPNNAHILDGNAADLQAECDAFENKIKEAGGIDLFVGGIGPDGHIAFNEPGSSLVSRTRLKTLAMDTILANAKYFDGDLSKVPTMALTVGVGTVMDAREVMILITGAHKAFALYKAIEEGVNHMWTVSAFQQHPRTIFVCDEDATLELRVKTVKYFKGLMHVHNKLVDPLFSMKDGN
modifications: full-length
B11: P23434 (protein, UniProt P23434 1-173, looked up)
chain: MALRVVRSVRALLCTLRAVPSPAAPCPPRPWQLGVGAVRTLRTGPALLSVRKFTEKHEWVTTENGIGTVGISNFAQEALGDVVYCSLPEVGTKLNKQDEFGALESVKAASELYSPLSGEVTEINEALAENPGLVNKSCYEDGWLIKMTLSNPSELDELMSEEAYEKYIKSIEE
modifications: full-length
B12: Q6ZVN8 (protein, UniProt Q6ZVN8 1-426, looked up)
chain: MGEPGQSPSPRSSHGSPPTLSTLTLLLLLCGHAHSQCKILRCNAEYVSSTLSLRGGGSSGALRGGGGGGRGGGVGSGGLCRALRSYALCTRRTARTCRGDLAFHSAVHGIEDLMIQHNCSRQGPTAPPPPRGPALPGAGSGLPAPDPCDYEGRFSRLHGRPPGFLHCASFGDPHVRSFHHHFHTCRVQGAWPLLDNDFLFVQATSSPMALGANATATRKLTIIFKNMQECIDQKVYQAEVDNLPVAFEDGSINGGDRPGGSSLSIQTANPGNHVEIQAAYIGTTIIIRQTAGQLSFSIKVAEDVAMAFSAEQDLQLCVGGCPPSQRLSRSERNRRGAITIDTARRLCKEGLPVEDAYFHSCVFDVLISGDPNFTVAAQAALEDARAFLPDLEKLHLFPSDAGVPLSSATLLAPLLSGLFVLWLCIQ
modifications: full-length
B13: P00738 (protein, UniProt P00738 1-406, looked up)
chain: MSALGAVIALLLWGQLFAVDSGNDVTDIADDGCPKPPEIAHGYVEHSVRYQCKNYYKLRTEGDGVYTLNDKKQWINKAVGDKLPECEADDGCPKPPEIAHGYVEHSVRYQCKNYYKLRTEGDGVYTLNNEKQWINKAVGDKLPECEAVCGKPKNPANPVQRILGGHLDAKGSFPWQAKMVSHHNLTTGATLINEQWLLTTAKNLFLNHSENATAKDIAPTLTLYVGKKQLVEIEKVVLHPNYSQVDIGLIKLKQKVSVNERVMPICLPSKDYAEVGRVGYVSGWGRNANFKFTDHLKYVMLPVADQDQCIRHYEGSTVPEKKTPKSPVGVQPILNEHTFCAGMSKYQEDTCYGDAGSAFAVHDLEEDTWYATGILSFDKSCAVAEYGVYVKVTSIQDWVQKTIAEN
modifications: full-length

test: TMTcalibrator quantification of regulated proteins in AD CSF versus control; design: species or system human; details: CSF of AD patient versus control; non-modified peptides of each protein summed for three control and three AD cases

Q: With B1 as the molecule, how does the “Log2 AD/Control” value read?
A: −0.66

Q: With B2 as the molecule, how does the “Log2 AD/Control” value read?
A: 0.90

Q: Which “Log2 AD/Control” value does the source give for B3 here?
A: 0.75

Q: For B4, which “Log2 AD/Control” value is on record?
A: 1.13

Q: For B5, which “Log2 AD/Control” value is on record?
A: 0.78

Q: With B6 as the molecule, how does the “Log2 AD/Control” value read?
A: 1.04

Q: Which “Log2 AD/Control” value does the source give for B7 here?
A: −1.65

Q: For B8, which “Log2 AD/Control” value is on record?
A: 1.13

Q: For B9, which “Log2 AD/Control” value is on record?
A: 0.90

Q: For B10, which “Log2 AD/Control” value is on record?
A: −0.65

Q: For B11, which “Log2 AD/Control” value is on record?
A: 0.94

Q: With B12 as the molecule, how does the “Log2 AD/Control” value read?
A: 0.87

Q: With B13 as the molecule, how does the “Log2 AD/Control” value read?
A: −1.07

Source: US12419871B2, “Biomolecules involved in Alzheimer's disease” (ELECTROPHORETICS LIMITED, priority 2015, dated 2025)
